Out of some 220,000 compounds screened, about 770 (0.35%) were called active. Inconclusive results, whose numbers are uncertain, are shown with a selection of clear calls. Rule as the data show it: active = binding response below about 49% or above about 150%; inconclusive = no clear call, values can overlap the other calls; inactive = in between.
molecular target: Guanine nucleotide-binding protein G(o) subunit alpha (Homo sapiens) (UniProt P09471); assay: RGS7-Galphao binding modulators, primary screen, biochemical, multiplexed bead flow cytometry (AID 1439); details: at 10 µM, actives lie on both sides;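 also: fluorescent Galphao held in activated GDP-AlF4 state binding bead-coupled RGS7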

Protein sequences, listed by entry. Tags and fused reporters are not part of them.
UniProt P09471, whole entry, looked up: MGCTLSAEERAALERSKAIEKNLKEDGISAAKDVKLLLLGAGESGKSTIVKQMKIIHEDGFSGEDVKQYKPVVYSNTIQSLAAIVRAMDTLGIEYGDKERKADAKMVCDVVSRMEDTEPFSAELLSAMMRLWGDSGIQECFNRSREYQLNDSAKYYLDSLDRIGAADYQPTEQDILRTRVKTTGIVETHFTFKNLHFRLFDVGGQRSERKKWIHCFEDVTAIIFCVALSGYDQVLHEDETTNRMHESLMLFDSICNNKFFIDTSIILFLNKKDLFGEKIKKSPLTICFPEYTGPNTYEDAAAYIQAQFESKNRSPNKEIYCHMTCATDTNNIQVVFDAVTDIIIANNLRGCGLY

| SMILES | binding response (% of control) |
| --- | --- |
| c1ccc(Nc2nc(NCc3ccco3)c3ccccc3n2)cc1 | inconclusive: 69.9% |
| COc1ccc(NC(=O)CC2C(=O)N(C)C(=S)N2Cc2ccncc2)cc1 (configuration not stated) | inconclusive: 108% |
| O=C1C=CC(=O)N1c1ccc(O)cc1 | inconclusive: 147% |
| O=C(CSc1nnc(-c2ccccc2Cl)o1)Nc1ccccn1 | inactive: 89.6% |
| O=C(CCC1CCCN(C(=O)CCN2CCCCC2=O)C1)NCc1ccccc1F (configuration not stated) | inactive: 95.2% |
| COc1cccc(CC(=O)NNC(=O)c2c(-c3ccccc3)noc2C)c1 | inconclusive: 278% |
| Cc1cc(C)c(NC(=O)CS(=O)CC(=O)Nc2ccc(F)cc2F)c(C)c1 (configuration not stated) | inconclusive: 100% |
| C[C@@H]1Cc2c(O)c(O)cc(O)c2C(=O)O1 | inconclusive: 34.1% |
| CCCc1cc(=O)[nH]c(SCC(=O)c2c(C)[nH]c3ccccc23)n1 | inconclusive: 117% |
| c1ccc(Sc2ncnc3ccccc23)cc1 | inconclusive: 94.8% |
| CCOc1cc(/C=N/N2C(=O)NC3(CCCCC3)C2=O)cc(Br)c1O | inconclusive: 118% |
| COc1ccc(S(=O)(=O)N2CCOC2CNC(=O)C(=O)NCc2ccco2)cc1C (configuration not stated) | inconclusive: 81% |
| C#CCO[C@@H]1C[C@H](n2cnc3c(NC(=O)c4ccccc4)ncnc32)O[C@@H]1CO | inconclusive: 100% |
| O=C(OCCOc1ccccc1)c1n[nH]c2ccccc12 | inconclusive: 759% |
| O=C(/C(=C/c1ccncc1)n1ccnc1)c1ccc(Cl)cc1Cl | inconclusive: 97.2% |
| Cc1ccccc1C1=Nn2c(nnc2-c2ccco2)SC1 | inconclusive: 61.3% |
| NC(N)=N/N=C/c1cccc(Cl)c1Cl | inactive: 106% |
| NC(=O)/C=C/C(=O)Nc1ccc(Cl)cc1 | inconclusive: 90.4% |
| CC1CN(C(=O)c2cccc(COc3ccccc3Cl)c2)CC(C)O1 (configuration not stated) | inconclusive: 97% |
| CC(C)c1ccc2c(c1)C1Cc3ccccc3C1N2 (configuration not stated) | inactive: 101% |
| CCCCCC(=O)Nc1cccc(C2=NOC3(C2)C[C@H](C(N)=O)N(C(=O)CC#N)C3)c1 (some centres not stated) | inconclusive: 94.3% |
| CC(=O)N1N=C(c2c(-c3ccccc3)c3cc(Br)ccc3[nH]c2=O)CC1c1ccco1 (configuration not stated) | inconclusive: 87.5% |
| COc1ccccc1OCc1csc(NC(=O)c2ccco2)n1 | active: -7.55% |

| SMILES | binding response (% of control) |
| --- | --- |
| Cn1c(=O)c([N+](=O)[O-])c(NCc2ccccc2Cl)c2ccccc21 | inconclusive: 48.4% |
| O=c1nc(Nc2ccccc2)oc2ccccc12 | inconclusive: 93% |
| CCSc1ccccc1C(=O)NCCc1ccccc1 | inconclusive: 99.8% |
| NC(=O)c1ccc[n+](CC(=O)c2ccccc2)c1 | inconclusive: 101% |
| Cc1cc(C)n2nc(SCC(=O)c3c(N)n(CC(C)C)c(=O)n(C)c3=O)nc2n1 | inactive: 96.5% |
| Cc1c(C(=O)/C=C/N(C)C)nnn1-c1ccc(Cl)c(Cl)c1 | inconclusive: 88.4% |
| O=C(Nc1ccc(N2CCOCC2)cc1)c1ccc(S(=O)(=O)NCc2ccco2)cc1 | inconclusive: -511% |
| COC(=O)c1c(C(=O)NCc2ccccc2)ncn1CC(O)COc1ccccc1 (configuration not stated) | inactive: 85.9% |
| Cc1nc(C(=O)NCc2ccccc2)sc1C1(C)CC(c2cccc([N+](=O)[O-])c2)=NO1 (configuration not stated) | inconclusive: 90.7% |
| COc1ccc(N2CCN(c3nc4ccccc4n3CC(=O)c3ccccc3)CC2)cc1 | active: 165% [activator] |
| Cn1c(=O)oc2cc(S(=O)(=O)N3CCCC(C(=O)N4CC=C(c5ccccc5)CC4)C3)ccc21 (configuration not stated) | inactive: 99% |
| O=C(C[n+]1ccccc1)N/N=C/c1ccccc1[N+](=O)[O-] | inconclusive: 107% |
| Cc1ccc(/C=C/c2nc3ccccc3c(=O)[nH]2)cc1 | inconclusive: 75.7% |
| CC(C)(C)NC(=O)c1cccc2c1OC(C)(C)C2 | inactive: 89.2% |
| CC(=O)c1ccc(NC(=O)CSc2nc(=O)cc(N)n2-c2ccccc2)cc1 | inconclusive: 86% |
| O=C1COCC(=O)N1CCc1c[nH]c2ccccc12 | inconclusive: 103% |
| CSc1cccc(NC(=O)C(C)C)c1 | inconclusive: 86.5% |
| CCn1cc(Br)c(C(=O)Nc2ccc(F)cc2F)n1 | inconclusive: 100% |
| COc1cc(C(CC(=O)N2CCCC2)c2c(OC)cc(OC)c3c(-c4ccccc4)cc(=O)oc23)cc(OC)c1OC (configuration not stated) | inconclusive: 116% |
| O=C1SCCC1NC(=O)C(c1ccccc1)c1ccccc1 (configuration not stated) | inconclusive: 262% |
| N/C(=N\c1nc(CSc2ccccn2)cc(=O)[nH]1)Nc1ccc(Cl)cc1Cl | inconclusive: 77.2% |
| CCc1nnc(NC(=O)Cn2ccc(C(F)(F)F)n2)s1 | inactive: 99.3% |
| CN=c1scc(-c2ccccc2Br)n1/N=C/c1ccc[nH]1 | inconclusive: 97% |

| SMILES | binding response (% of control) |
| --- | --- |
| CCOc1cc2c(cc1OCC)C(c1ccccc1)N(c1ccc(C(=O)O)cc1)C(=O)C2 (configuration not stated) | inconclusive: 92.3% |
| Cc1ccc(N2C(=O)CCC2(C#N)c2ccccc2)cc1 (configuration not stated) | inconclusive: 89.7% |
| CC(NC(=O)c1cc(Br)ccc1Cl)c1ccccc1 (configuration not stated) | inconclusive: 90.5% |
| O=C1COc2ccc(C(=O)COC(=O)CCSc3ccc(Cl)cc3)cc2N1 | inconclusive: 154% |
| CCOCCCNC(=O)/C(C#N)=C/c1ccc(-c2ccc(S(=O)(=O)N3CCOCC3)cc2)o1 | inactive: 93.3% |
| Nc1ncc([N+](=O)[O-])cc1Br | inconclusive: -184% |
| O=C(O)C(c1ccccc1)N1C(=O)/C(=C/c2cccs2)SC1=S (configuration not stated) | inconclusive: 68.7% |
| N=C1C(c2ccccc2)=C(O)CN1c1cccc(O)c1 | inactive: 96.8% |
| CCn1nc(C)cc1C(=O)Sc1cccc(Br)c1 | inconclusive: 267% |
| CCNc1ccc(N=Nc2c(C)n(C)n(-c3ccccc3)c2=O)cc1 | inconclusive: 115% |
| O=C(Nc1cc(Sc2nc3ccccc3s2)cc([N+](=O)[O-])c1)c1cccc(F)c1F | inactive: 101% |
| CC(=O)Cn1cnc2c(sc3nc(C)cc(C)c32)c1=O | inconclusive: 60.8% |
| O=C(CCCN1C(=O)/C(=C/c2cccs2)SC1=S)NNC(=O)c1cccnc1 | inconclusive: 89.1% |
| NC(=S)c1c(Cl)cc(C(F)(F)F)cc1Cl | inconclusive: 110% |
| NC(=O)c1ccc(Cl)c2ccccc12 | inconclusive: 65% |
| CCOc1ccc(-n2c(-c3ccc(Cl)cc3)c[n+]3c2SCC3)cc1 | inconclusive: 78.1% |
| CCOc1ccc(C(=O)/C=C/c2cc(OC)c(OC)c(OC)c2)cc1 | inconclusive: 110% |
| CC1(C)Cc2c(c(N3CCOCC3)nc3sc(C(N)=O)c(N)c23)CO1 | inconclusive: 85.8% |
| CC1(C)Cc2nc3oc4c(=O)n(CC(=O)Nc5ccc(Cl)cc5)cnc4c3cc2CO1 | inconclusive: 77.8% |
| CSCCC(NC(=O)c1cccc([N+](=O)[O-])c1)c1nc2ccccc2[nH]1 (configuration not stated) | inactive: 99.9% |
| CCC(C)(C)NC(=O)CCCSc1nc2ccccc2s1 | inconclusive: 120% |
| COC(=O)c1cccc(NC(=O)C(C)(C)C)c1 | inconclusive: 116% |
| O=C(c1ccc(COc2ccc(Cl)cc2)o1)N1N=C(C(F)F)CC1(O)C(F)F (configuration not stated) | inactive: 94.4% |

Structural class, the entries above containing a tert-butyl group.

| SMILES | binding response (% of control) |
| --- | --- |
| CC(C)(C)NC(=O)c1cccc2c1OC(C)(C)C2 | inactive: 89.2% |
| COC(=O)c1cccc(NC(=O)C(C)(C)C)c1 | inconclusive: 116% |

(listing goes on)

| SMILES | binding response (% of control) |
| --- | --- |
| C1CCCCCC(=NNc2nn[nH]n2)CCCCC1 | inconclusive: 109% |
| CC(C)=NOC(=O)c1c(C)noc1-c1snnc1C | inconclusive: 97.6% |
| CC1CCCN(S(=O)(=O)c2ccc3c(c2)n(C)c(=O)c(=O)n3C)C1 (configuration not stated) | inconclusive: 118% |
| CCOC(=O)C1=C(c2ccccc2)NC(N)=NC1c1ccc(OCc2ccc(C(=O)OC)cc2)cc1 (configuration not stated) | inconclusive: 72.7% |
| N/C(=N\c1nc2ccccc2o1)NC(=O)c1ccc([N+](=O)[O-])cc1 | inconclusive: 94% |
| Cn1c(=O)c2c(ncn2CC(=O)Nc2ccccc2N2CCOCC2)n(C)c1=O | inactive: 122% |
| O=C(/C=C/c1ccccc1)NC(=S)NNC(=O)c1cnccn1 | inconclusive: 90% |
| CCOc1ccc(N2C(=O)CC(NNc3nc4ccccc4s3)C2=O)cc1 (configuration not stated) | inconclusive: 60.9% |
| CCC(C)[C@H](NC(=O)Nc1ccccc1F)C(=O)O (some centres not stated) | inconclusive: 139% |
| Cc1ccccc1Nc1nc(N)nc(CSc2n[nH]c(N)n2)n1 | inconclusive: -85.9% |
| COc1ccc(Cl)cc1NC(=O)CCc1nc(-c2ccccc2F)no1 | inconclusive: 101% |
| O=C1[C@@H]2C(c3cccnc3)=NO[C@@H]2C(=O)N1c1ccc2ccccc2c1 | inconclusive: 112% |
| C=CCSc1nc2c(c(=O)[nH]1)C(c1ccccc1)C(C#N)=C(N)O2 (configuration not stated) | inconclusive: 99.3% |
| O=C(NCc1ccc2c(c1)OCO2)c1ccc(COc2cccc(Cl)c2)o1 | inactive: 101% |
| COc1ccccc1-n1c(=O)c(C#N)c(-c2ccc([N+](=O)[O-])cc2)c2cc(C(=O)c3cc(F)ccc3O)cnc21 | inconclusive: 69.7% |
| Cc1ccc(C(=O)C[n+]2cccc(C(N)=O)c2)cc1 | inconclusive: 46% |
| CCCCNC(=O)c1cc2ccccc2s1 | inactive: 97.8% |
| O=C(O)/C=C/C(=O)NNc1ncnc2ccccc12 | inconclusive: 96.8% |
| O=C(COC(=O)C1CCCCC1)Nc1ccc(S(=O)(=O)N2CCOCC2)cc1 | inactive: 102% |
| CCCCNC(=O)CN(c1cccc(Br)c1)S(C)(=O)=O | inactive: 101% |
| CS(=O)(=O)c1ccc(Cl)c(NC(=O)COC(=O)/C=C/c2cnc3ccccc3n2)c1 | inconclusive: 141% |
| Cc1ccccc1CSc1nnc(-c2ccccn2)n1C | inconclusive: 65.5% |
| C/C(=N\O)c1ccc2c(c1)CC(C)O2 (configuration not stated) | inconclusive: 125% |

An excerpt of these results, tab-delimited.
SMILES	binding response (% of control)
CCOc1ccc(C(=O)/C=C/c2cc(OC)c(OC)c(OC)c2)cc1	inconclusive: 110%
CC1(C)Cc2c(c(N3CCOCC3)nc3sc(C(N)=O)c(N)c23)CO1	inconclusive: 85.8%
CC1(C)Cc2nc3oc4c(=O)n(CC(=O)Nc5ccc(Cl)cc5)cnc4c3cc2CO1	inconclusive: 77.8%
